Assay results from article PMC8415483.

Protein sequences, listed by entry. Tags and fused reporters are not part of them.
UniProt P25098: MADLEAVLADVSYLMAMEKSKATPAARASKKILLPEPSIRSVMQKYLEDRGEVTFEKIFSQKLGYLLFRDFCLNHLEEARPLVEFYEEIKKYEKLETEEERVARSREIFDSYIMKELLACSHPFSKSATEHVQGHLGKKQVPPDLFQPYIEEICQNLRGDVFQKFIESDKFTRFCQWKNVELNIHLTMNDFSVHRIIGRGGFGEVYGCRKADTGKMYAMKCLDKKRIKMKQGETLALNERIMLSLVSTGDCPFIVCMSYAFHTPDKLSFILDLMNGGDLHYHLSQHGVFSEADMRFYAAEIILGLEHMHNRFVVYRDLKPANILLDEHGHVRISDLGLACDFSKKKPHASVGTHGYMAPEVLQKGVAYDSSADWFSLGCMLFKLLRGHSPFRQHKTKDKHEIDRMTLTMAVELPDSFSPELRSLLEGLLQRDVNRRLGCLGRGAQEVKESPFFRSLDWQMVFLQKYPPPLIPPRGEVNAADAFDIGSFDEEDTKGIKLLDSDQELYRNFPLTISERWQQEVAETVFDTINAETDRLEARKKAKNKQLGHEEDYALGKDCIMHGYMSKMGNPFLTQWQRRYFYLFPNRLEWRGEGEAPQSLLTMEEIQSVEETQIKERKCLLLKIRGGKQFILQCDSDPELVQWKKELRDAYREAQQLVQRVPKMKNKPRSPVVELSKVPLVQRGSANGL
UniProt P29067: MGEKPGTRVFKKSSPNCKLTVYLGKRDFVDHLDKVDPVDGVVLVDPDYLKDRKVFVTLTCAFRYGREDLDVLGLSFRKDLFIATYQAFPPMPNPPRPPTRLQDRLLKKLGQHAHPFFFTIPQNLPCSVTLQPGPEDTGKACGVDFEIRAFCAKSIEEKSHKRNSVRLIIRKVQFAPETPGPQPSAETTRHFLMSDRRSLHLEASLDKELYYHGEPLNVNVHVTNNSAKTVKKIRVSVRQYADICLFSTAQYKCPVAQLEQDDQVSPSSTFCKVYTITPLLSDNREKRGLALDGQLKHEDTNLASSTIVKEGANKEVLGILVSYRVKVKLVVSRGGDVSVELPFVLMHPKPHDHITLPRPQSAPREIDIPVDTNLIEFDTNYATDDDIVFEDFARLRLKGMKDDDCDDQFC
UniProt P35626: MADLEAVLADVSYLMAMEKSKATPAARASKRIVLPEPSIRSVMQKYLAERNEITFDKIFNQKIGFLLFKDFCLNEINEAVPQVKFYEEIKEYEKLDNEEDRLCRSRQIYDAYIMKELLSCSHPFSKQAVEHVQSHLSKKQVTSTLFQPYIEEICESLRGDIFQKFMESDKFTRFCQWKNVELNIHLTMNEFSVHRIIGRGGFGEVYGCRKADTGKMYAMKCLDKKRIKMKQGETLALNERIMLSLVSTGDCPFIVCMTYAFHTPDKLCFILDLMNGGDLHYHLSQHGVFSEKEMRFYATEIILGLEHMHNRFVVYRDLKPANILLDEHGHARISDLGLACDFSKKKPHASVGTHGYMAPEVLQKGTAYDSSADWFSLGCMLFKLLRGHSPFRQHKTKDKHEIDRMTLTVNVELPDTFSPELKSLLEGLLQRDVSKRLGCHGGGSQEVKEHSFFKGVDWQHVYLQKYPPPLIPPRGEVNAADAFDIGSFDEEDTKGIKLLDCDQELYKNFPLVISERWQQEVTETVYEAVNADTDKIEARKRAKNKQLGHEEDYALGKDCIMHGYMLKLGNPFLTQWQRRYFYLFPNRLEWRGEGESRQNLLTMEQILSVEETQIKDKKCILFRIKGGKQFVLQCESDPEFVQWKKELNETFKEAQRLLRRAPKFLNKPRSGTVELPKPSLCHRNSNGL

Key:
[1] = biological target: CB2R–BirA-R118G (wild-type human CB2R fused to promiscuous biotin ligase) (human) (UniProt P34972); assay: proximity labelling; CB2R–BirA-R118G expressed in HEK 293T; 10 μM JWH-133 and biotin; biotinylated endogenous proteins pulled down, immunoblot for GRK2 and GRK3, densities normalised to streptavidin staining
[2] = biological target: CB2R-L133I–BirA-R118G (human) (UniProt P34972); assay: as above
[3] = biological target: CB2R-Q63R–BirA-R118G (human) (UniProt P34972); assay: as above
[4] = biological target: CB2R–BirA-R118G (wild-type human CB2R fused to promiscuous biotin ligase) (human) (UniProt P34972); assay: proximity labelling; CB2R–BirA-R118G and β-arrestin2–Venus co-expressed in HEK 293T; 10 μM JWH-133 and 100 μM biotin for 20–24 h; RIPA lysate, biotinylated proteins pulled down on NeutrAvidin-agarose, high-salt washes; Venus fluorescence on the beads
[5] = biological target: CB2R-L133I–BirA-R118G (human) (UniProt P34972); assay: as above
[6] = biological target: CB2R-Q63R–BirA-R118G (human) (UniProt P34972); assay: as above

Measured: binding

GRK2 (G protein-coupled receptor kinase 2), endogenous (from UniProt P25098 1-689) (enzyme)
binds: [1] | [2] | [3]

β-arrestin2–Venus (from UniProt P29067 1-410)
binds: [4] | [5] | [6]

GRK3 (G protein-coupled receptor kinase 3), endogenous (from UniProt P35626 1-688) (enzyme)
binds: [1] | [2] | [3]

These are yes or no findings as the source states them, for the method shown. Binding seen in cells or lysates may run through a third protein. Here binding means that the protein was enriched with, or labelled near, the bait; the list need not be complete.
